Measurements: PubChem BioAssay AID1347076 (National Center for Advancing Translational Sciences (NCATS), 2019)
About 13,000 (3.2%) of roughly 400,000 compounds were called active. The shares of active, inactive and inconclusive entries below differ from those in the screen. Calls follow the shape of the dose curve; as a rule, active = well fitted cell-killing curve with a large enough effect; inconclusive = small, poorly fitted or top-dose-only effect, or effect the other way; inactive = flat fitted curve, though single readings scatter. Potencies of inconclusive entries are doubtful fits and often do not repeat.

test: qHTS assay for MDR1-selective chemotherapeutics: Primary screen using the drug-selected MDR subline cells KB-V1; conditions: KB-V1 MDR cells viability, CellTiter-Glo, 72 h; activity change, negative = cytotoxicity: at 46.1 µM (top of the series); also: nearly all actives have a fitted effect of over 60% in size
Summary of the method: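 Cytotoxicity via CellTiter-Glo luminescence after 72 h compound exposure at 37 degrees C. Cells: drug-selected KB-V1 line, DMEM phenol-red free plus 10% FBS. Compounds tested at multiple concentrations; normalized data fitted to concentration-effect curves.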
% is scaled to controls: 0 for no effect and ±100 for the full control effect; potency is read from the fitted curve at half-maximal effect.

SMILES	Potency	activity change, negative = cytotoxicity
CCOc1ccc2nc(NC(=O)c3ccc(S(=O)(=O)N4CCOCC4)cc3)sc2c1	inactive	
FC(F)(F)c1ccc(/C=N/n2c(COc3ccccc3)n[nH]c2=S)cc1	inconclusive: 16.4 µM [rising, partial curve, poor fit]	
COc1ccc(NC(=O)c2cc3cccc(OC)c3oc2=Nc2ccc(C(=O)O)cc2)cc1OC	inactive	
O=C1CNC(=O)/C(=C/c2cccs2)N1	inconclusive: 16.4 µM [rising, partial curve, poor fit]	
COc1ccc2c(c1)c1c(c(=O)n(CCc3ccccc3)c(=O)n1Cc1ccc(Cl)cc1)n2C	inactive	
COc1ccc(-c2nc(SCC(=O)NC3CCCCC3)n[nH]2)cc1	inconclusive: 29.1 µM [cytotoxic, single point]	
CC(=O)c1ccc(NC(=S)Nc2ccc(N3CCOCC3)cc2)cc1	inactive	
CCN(CC)C(=O)CC(c1cc(OC)c(OC)c(OC)c1)c1c(OC)cc(OC)c2ccc(=O)oc12 (configuration not stated)	inconclusive: 2.06 µM [cytotoxic, full curve]	
ClCc1nnc(-c2cc3c(s2)CCCC3)o1		inconclusive: 0%
CCS(=O)(=O)c1nc(S(=O)(=O)c2ccc(C)cc2)c(N2CCN(CCO)CC2)s1	inactive	
COc1ccc(C(C)(C)C)cc1NC(=O)COC(=O)CN1C(=O)NC2(CCCCC2C)C1=O (configuration not stated)	inconclusive: 29.1 µM [rising, single point]	
COc1ccccc1CNC(=O)Cn1ncc2c(C)n(Cc3ccccc3Cl)c(C)c2c1=O	inactive	
CC(=O)Nc1cccc(C(=O)OCc2ccc(C(=O)Oc3ccc(Cl)cc3)cc2)c1	inactive	
Cc1ccc(S(=O)(=O)N2CCN(C(=O)c3cc(=O)c4ccccc4o3)CC2)cc1	inconclusive: 7.31 µM [cytotoxic, partial curve]	
COC(=O)c1ccc(OCC(=O)c2ccc(O)cc2O)cc1	active: 23.1 µM	
O=C(COC(=O)c1cc([N+](=O)[O-])ccc1NCCO)Nc1cccc(S(=O)(=O)N2CCCC2)c1	inconclusive: 29.1 µM [rising, single point]	
CCNC(=O)n1nccc1C(C)Oc1ccc(Cl)cc1 (configuration not stated)	inconclusive: 29.1 µM [cytotoxic, single point]	
CCOC(=O)CN(C(=O)CSc1nnc2c(n1)[nH]c1ccc(OC)cc12)c1ccc(F)cc1	inactive	
CCOc1ccccc1NC(=O)N1CCN(S(=O)(=O)c2ccc3c(ccn3C)c2)CC1	inactive	
O=C(Nc1ccccc1C(=O)NCC1CCCO1)c1ccccc1F (configuration not stated)	inconclusive: 6.51 µM [cytotoxic, partial curve]	
COc1ccccc1-c1sc2ccccc2c1-c1ccccc1OC	inactive	
CCN(CC(=O)NCc1ccc(Cl)cc1)C(=O)c1ccc2cc(OC)ccc2c1	inconclusive: 29.1 µM [cytotoxic, single point]	
CCN(CC)CCNC(=O)c1cc2c(=O)[nH]c3ccc(C)cc3c2s1	inconclusive: 3.26 µM [rising, full curve]	
O=C(CSc1ccc(Cl)cc1)Nc1ccc(-c2nc3ccccc3[nH]2)cc1	inactive	

SMILES	Potency	activity change, negative = cytotoxicity
O=C(C1c2ccccc2Oc2ccccc21)N1CCN(c2ccc(Cl)cc2)CC1	inconclusive: 20.6 µM [cytotoxic, single point]	
Cn1c(=N)n(CC(=O)c2ccc(Br)s2)c2ccccc21	inconclusive: 20.6 µM [cytotoxic, single point]	
O=S(=O)(NCC(c1ccco1)N1CCN(c2ccc(F)cc2)CC1)c1ccc(F)cc1 (configuration not stated)	active: 14.6 µM	
Cc1ccc(C2=CC(C)(c3ccc(C)cc3)Nc3nc(C(F)(F)F)nn32)cc1 (configuration not stated)	inconclusive: 25.9 µM [cytotoxic, single point]	
O=C(C1CCC(=O)N(C2CCCC2)C1)N1CCN(Cc2cccc(Cl)c2)CC1 (configuration not stated)	inconclusive: 16.4 µM [cytotoxic, single point]	
CCC(=O)N1CCc2cc(S(=O)(=O)N(C)c3cccc(C)c3)ccc21	inactive	
CC1CCCN(C(C(=O)NC2CCCCC2)c2cc3c(cc2[N+](=O)[O-])OCO3)C1 (configuration not stated)	active: 8.2 µM	
O=C1c2cccc(OCC(=O)N3N=C(c4cccs4)CC3c3ccc(F)cc3)c2CCN1Cc1ccccc1 (configuration not stated)	active: 1.64 µM	
COC(=O)CNC(=O)CNC(=O)Nc1ccccc1Cl	inactive	
CCOc1ccc(C(=O)NCCc2ccc3c(c2)OCCO3)cc1	inconclusive: 20.6 µM [cytotoxic, single point]	
O=C1NC(Cc2ccc(O)cc2)c2nc3cc(Cl)ccc3c(=O)n2-c2cc(Cl)ccc21 (configuration not stated)	inactive	
Cc1cc(/C=N/NC(=O)c2cc3ccccc3o2)c(C)n1C	inactive	
c1ccc(-c2sc3ccccc3c2-c2ccc(OCCN3CCCC3)cc2)cc1	inconclusive: 29.1 µM [cytotoxic, single point]	
CC1Cc2ccccc2N1C(=O)/C=C/c1cccc(F)c1 (configuration not stated)	inconclusive: 23.1 µM [cytotoxic, single point]	
CCOC(=O)C1(CC2CC2)CCN(Cc2cn[nH]c2-c2ccccc2)CC1	inactive	
COc1ccc(-c2cnc3c(NC=O)cc(-c4ccoc4)cn23)cc1OC	inconclusive: 20.6 µM [cytotoxic, single point]	
COc1ccccc1NC(=O)Cn1cnc2c(cnn2-c2ccc(C)c(C)c2)c1=O	active: 13 µM	
Cn1c(SCC(=O)c2ccc3c(c2)Cc2ccccc2-3)nnc1-c1cccc(N)c1	active: 16.4 µM	
Cc1ccc(Cn2c(SCC(=O)N3CC(=O)Nc4ccccc43)nc3ccccc3c2=O)cc1	active: 20.6 µM	
Cc1ccc(OCCCCNC(C)(C)C)c([N+](=O)[O-])c1	active: 23.1 µM	
CCOC(=O)c1c(C)[nH]c(C(=O)COC(=O)COc2ccccc2C)c1C	inconclusive: 8.2 µM [cytotoxic, partial curve, poor fit]	
CCN(CC(=O)Nc1cc(OC)ccc1OC)Cc1nc2ccccc2c(=O)[nH]1	inconclusive: 7.31 µM [cytotoxic, partial curve]	
O=C(Nc1nnc(C(F)(F)F)s1)C1COc2ccccc2O1 (configuration not stated)	inconclusive: 29.1 µM [cytotoxic, single point]	

A few values from the results shown:
Cn1c(SCC(=O)c2ccc3c(c2)Cc2ccccc2-3)nnc1-c1cccc(N)c1 – Potency: active: 16.4 µM
Cc1ccc(Cn2c(SCC(=O)N3CC(=O)Nc4ccccc43)nc3ccccc3c2=O)cc1 – Potency: active: 20.6 µM
CCOC(=O)c1c(C)[nH]c(C(=O)COC(=O)COc2ccccc2C)c1C – Potency: inconclusive: 8.2 µM [cytotoxic, partial curve, poor fit]
O=C1NC(Cc2ccc(O)cc2)c2nc3cc(Cl)ccc3c(=O)n2-c2cc(Cl)ccc21 (configuration not stated) – Potency: inactive
